From article PMC2543017
The exact form of at least one protein or probe is not confirmed. The comparison behind a weaker result is the experiment's own reference, which may not be listed here. Tags and fusion partners may be left off the protein sequences shown. At least one verdict was read from the data and is not stated in words by the source.

Biological target: T1, NF-kappaB p50 (UniProt P19838)
T1 sequence (looked up, limits assumed): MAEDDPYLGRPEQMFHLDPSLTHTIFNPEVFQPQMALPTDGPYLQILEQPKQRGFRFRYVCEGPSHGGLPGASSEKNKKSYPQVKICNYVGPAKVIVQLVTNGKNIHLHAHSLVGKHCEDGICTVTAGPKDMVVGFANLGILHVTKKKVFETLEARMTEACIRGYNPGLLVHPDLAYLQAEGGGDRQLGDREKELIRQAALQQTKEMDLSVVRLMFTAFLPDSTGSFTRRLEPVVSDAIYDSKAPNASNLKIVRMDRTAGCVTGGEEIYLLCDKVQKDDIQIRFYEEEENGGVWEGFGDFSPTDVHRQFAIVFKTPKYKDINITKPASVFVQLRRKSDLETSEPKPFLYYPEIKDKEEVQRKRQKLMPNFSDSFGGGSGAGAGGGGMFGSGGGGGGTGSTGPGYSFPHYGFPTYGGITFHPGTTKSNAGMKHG
Experiment: EMSA
Conditions: EMSA: p50 preincubated 15 min with compound, then 15 min with 32P-DNA (Methods: 5 min at room temperature), 6% PAGE, 0.25x TBE, commercial protein, label: 32P 5' end (T4 PNK)

AATCGTGGAATTTCCTCT (double strand) [IL-8 NF-kB]
binding result (compound 21 (0.01-10 mM) inhibits complex, poly(dI:dC)): binds more weakly | binding result (no inhibitor effect: compound 5 or C. pyramidalis extract inactive, poly(dI:dC)): binds | binding result (reference compound 9i (0.01-10 mM), effect similar to compound 21, poly(dI:dC)): binds more weakly
